The nature of the assay: qHTS Assay for Modulators of Lamin A Splicing. To be noted: HeLa LMNA splicing GFP/RFP minigene ratio, 48 h. An outline of the steps:
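Read-out is the ratio of GFP to DsRed2 object intensity, acquired by 488 nm laser-scanning cytometry on HeLa lamin A-EGFP minigene reporter cells. Compound incubation 48 hrs at 37 °C in Opti-MEM with 2% FBS; DMSO 0.5% final.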

Where [1] appears, read: measured here: GFP splicing reporter channel.
Where [2] appears, read: measured here: RFP viability control channel.

Structures are written as SMILES. The list shows a part of the results. These are further read-outs of the screen, such as a control signal, another cell line or another target. No call is given for them. Compounds called inactive in the main read-out are mostly missing here. The note in brackets gives the kind of curve behind each potency; many fits are weak.

In PubChem BioAssay AID1487 (National Center for Advancing Translational Sciences (NCATS), 2009) one finds AC50 data, which are given here for 55 molecules.

Turning to `CCCCCCCCCCCCCCCCOP(=O)([O-])OCC[N+](C)(C)C`, the concentration at half-maximal activity (AC50) (usually the concentration giving half of the maximal activity seen) is 12.6 µM [rising, partial curve] under setting [1] and 3.55 µM [rising, full curve] under setting [2].
`COc1ccc(NC(=O)CCCSc2ccccc2)cc1`: under setting [1], the half-maximal activity concentration (AC50) is 6.31 µM [falling, partial curve].
For the molecule `O=[N+]([O-])c1cc(Cl)ccc1N1CCN(c2cccc(C(F)(F)F)c2)CC1`, the half-maximal activity concentration (AC50) under setting [2] was 17.8 µM [rising, partial curve].
Consider `COc1ccc(C2CC(=O)N3C(=C2C#N)SCC3(O)c2ccccc2)cc1` (configuration not stated), for which, under setting [2], the AC50 was 14.1 µM [rising, partial curve].
With `CCCCCCc1nc2ccccc2c(=O)n1N`, the concentration at half-maximal activity (AC50) under setting [2] was 35.5 µM [rising, single point].
For `O=C(c1cnc2ccc(Cl)cc2c1Cl)N1CCOCC1`, the AC50 under setting [2] was 7.08 µM [falling, partial curve, poor fit].
As to `COc1ccccc1NC(=O)C1=C(C)Nc2c(C(=O)Nc3ccc(C)cc3)cnn2C1c1cccc(OC)c1OC` (configuration not stated), the AC50 under setting [1] is 22.4 µM [falling, partial curve, poor fit] and the AC50 under setting [2] is 0.158 µM [falling, full curve, poor fit].
Turning to `O=C(CSc1ncnc2c1cnn2CCO)Nc1cccc(C(F)(F)F)c1`, the concentration at half-maximal activity (AC50) by setting is: under setting [1], 15.8 µM [rising, single point]; under setting [2], 35.5 µM [rising, single point].
Take `COc1ccc(CNC(=O)Cn2c(=O)nc(-c3ccccc3)c3cc(Cl)ccc32)cc1OC`: the AC50 by setting is: under setting [1], 0.0126 µM [rising, full curve, poor fit]; under setting [2], 0.01 µM [rising, full curve, poor fit].
`Cc1ccc(Sc2ncnc3onc(C)c23)cc1`: the AC50 under setting [2] was 11.2 µM [rising, partial curve, poor fit].
Turning to `COc1cccc(C(=O)Nc2ccc(-n3nncc3-c3ccccc3)cc2)c1OC`, the half-maximal activity concentration (AC50) under setting [1] was 11.2 µM [falling, partial curve, poor fit].
For the molecule `CN(CC(O)COC(c1ccccc1)c1ccccc1)C1CCCCC1` (configuration not stated), under setting [1], the half-maximal activity concentration (AC50) was 20 µM [falling, partial curve, poor fit].
On to `O=c1cnc2cnc(Nc3ccccc3)nc2n1Cc1cccs1`, for which the AC50 is 10 µM [falling, partial curve] under setting [1] and 11.2 µM [falling, partial curve] under setting [2].
As for `O=C(Nc1cccc(S(=O)(=O)NCc2ccco2)c1)c1cc(-c2ccc(F)cc2)nc2ccccc12`, under setting [2], the AC50 was 35.5 µM [rising, single point].
In the case of `Cc1sc(NC(=O)C2C3C=CC(C3)C2C(=O)O)c(C(N)=O)c1-c1ccc(C(C)C)cc1` (configuration not stated), the half-maximal activity concentration (AC50) under setting [1] is 12.6 µM [rising, partial curve] and the AC50 under setting [2] is 22.4 µM [rising, partial curve].
Consider `COc1ccc(-c2[nH]ncc2-c2nc(C)cs2)c(O)c1`, for which the AC50 under setting [1] is 0.0141 µM [falling, full curve, poor fit].
`O=C(CCl)N(c1ccc(Cl)cc1)c1c[nH]c2ccccc12`: the concentration at half-maximal activity (AC50) under setting [1] is 35.5 µM [falling, single point] and the concentration at half-maximal activity (AC50) under setting [2] is 35.5 µM [falling, single point].
As to `COc1ccccc1NC(=O)C1=C(C)Nc2nnnn2C1c1ccccn1` (configuration not stated), the concentration at half-maximal activity (AC50) under setting [2] is 35.5 µM [rising, single point].
`O=C(Nc1ccc(Cc2ccncc2)cc1)C1CCC(N2C(=O)C3CC=CCC3C2=O)CC1` (configuration not stated): under setting [2], the AC50 is 20 µM [rising, single point].
For `CCOc1cc(N2CCOCC2)c(OCC)cc1NC(C)C(=O)N1CCN(CC)CC1` (configuration not stated), the concentration at half-maximal activity (AC50) under setting [1] is 0.794 µM [falling, full curve, poor fit].
Regarding `Cc1nc2c(C(=O)NCCC(C)C)c[nH]n2c(=O)c1Cc1ccccc1F`, the half-maximal activity concentration (AC50) reads like this: under setting [1], 11.2 µM [falling, partial curve]; under setting [2], 14.1 µM [falling, partial curve].
Turning to `CC(=O)Nc1ccc(N=Nc2ccc(O)cc2)cc1`, under setting [2], the concentration at half-maximal activity (AC50) was 25.1 µM [rising, single point].
With `COc1ccc(-c2noc(CCCC(=O)Nc3cccc(Cl)c3C)n2)cc1`, the AC50 reads like this: under setting [1], 22.4 µM [falling, single point]; under setting [2], 14.1 µM [falling, partial curve, poor fit].
`CC(NC(=O)/C=C/c1ccc(Br)cc1)c1ccccc1` (configuration not stated): under setting [2], the AC50 was 11.2 µM [rising, partial curve, poor fit].
On to `Cc1ccc(-c2cnc(NC(=O)c3cccc(Br)c3)s2)c(C)c1`, for which the AC50 runs as follows: under setting [1], 1.26 µM [rising, partial curve, poor fit]; under setting [2], 12.6 µM [rising, partial curve].
As for `CCn1c(COc2ccccc2C)nnc1SCC(=O)N1CCC(C)CC1`, the AC50 is 11.2 µM [rising, single point] under setting [1] and 12.6 µM [rising, single point] under setting [2].
With `O=C(/C=C/c1ccccc1Cl)Nc1cccc(S(=O)(=O)NC2=NCCCCC2)c1`, the AC50 is 11.2 µM [rising, partial curve] under setting [1] and 17.8 µM [rising, partial curve] under setting [2].
With `Cc1ccc(NC(=O)CSC2=C(C#N)C(c3ccco3)C3=C(CCCC3=O)N2)cc1` (configuration not stated), the concentration at half-maximal activity (AC50) under setting [2] was 10 µM [rising, partial curve].
As to `O=C(NC(Nc1ncc(S(=O)(=O)c2ccc([N+](=O)[O-])cc2)s1)(C(F)(F)F)C(F)(F)F)c1ccc(Cl)cc1`, the half-maximal activity concentration (AC50) under setting [2] was 5.62 µM [rising, full curve].
For `Cc1ccc2sc(N(Cc3cccnc3)C(=O)Cc3ccccc3)nc2c1C`, the concentration at half-maximal activity (AC50) is 7.94 µM [rising, partial curve, poor fit] under setting [1] and 15.8 µM [rising, partial curve] under setting [2].
Regarding `CC1=C(C(N)=O)C(c2cccc(O)c2)n2ncnc2N1` (configuration not stated), the AC50 under setting [1] is 7.08 µM [rising, partial curve, poor fit].
On to `CCCc1nc(NCc2ccncc2)c2nnn(Cc3ccccc3F)c2n1`, for which the AC50 under setting [2] was 14.1 µM [rising, partial curve, poor fit].
For `Cc1oc(-c2ccccc2Cl)nc1CSCC(=O)N1CCCC1`, the concentration at half-maximal activity (AC50) under setting [2] is 2.24 µM [rising, full curve].
In the case of `Cc1ccc(-n2c(C)cc(C3=NNC(=NC4CC4)SC3)c2C)cc1C`, the concentration at half-maximal activity (AC50) is 14.1 µM [rising, single point] under setting [1] and 12.6 µM [rising, single point] under setting [2].
Take `CC(=O)c1ccccc1OCC(O)CN1CCN(C(c2ccccc2)c2ccccc2)CC1` (configuration not stated): the AC50 under setting [2] is 15.8 µM [rising, single point].
With `O=C(c1cc(-c2ccccc2O)on1)N1CCc2ccccc2C1`, the concentration at half-maximal activity (AC50) under setting [2] was 12.6 µM [rising, single point].
As to `COc1ccc(CNC(=O)COC(=O)CC2CC3CCC2C3)cc1OC` (configuration not stated), the half-maximal activity concentration (AC50) runs as follows: under setting [1], 0.2 µM [falling, full curve]; under setting [2], 0.891 µM [falling, full curve, poor fit].
Regarding `Cc1nc2ccn(Cc3cccs3)c(=O)c2cc1C(=O)NCc1ccc(Br)cc1`, the AC50 under setting [2] was 3.55 µM [rising, single point].
Consider `CCNc1ccc(C(=O)OCC)cc1NC(=O)c1cccc(N(C)C)c1`, for which the half-maximal activity concentration (AC50) was 31.6 µM [rising, single point] under setting [1] and 11.2 µM [rising, partial curve] under setting [2].
In the case of `COC(=O)c1cccc(NC(=S)N2CCOCC2)c1`, the concentration at half-maximal activity (AC50) under setting [2] was 3.16 µM [rising, single point].
Regarding `COc1ccc(CCCc2nnc(SCC(=O)Nc3nc(C)cs3)n2C)cc1C`, the AC50 under setting [2] is 12.6 µM [rising, partial curve, poor fit].
For the molecule `CCc1nnc(NC(=O)CSc2nc3cccnc3n2Cc2ccccc2)s1`, the AC50 under setting [2] was 10 µM [rising, partial curve, poor fit].
Regarding `Cc1ccccc1-c1nc(N(C)Cc2ccco2)c2ccccc2n1`, the AC50 under setting [1] is 11.2 µM [falling, partial curve].
For `Cc1ccc(NC(=O)CSc2nc3ccccc3n2CC(=O)N2CCC(C)CC2)cc1C`, the AC50 under setting [2] is 0.158 µM [rising, full curve, poor fit].
As to `CCCSc1nc(N2CCOCC2)c2c(c1C#N)CC(C)(C)SC2`, the half-maximal activity concentration (AC50) under setting [1] is 17.8 µM [rising, partial curve, poor fit].
For the molecule `COc1ccc(CCNC(=O)Cn2nnc(-c3ccc(Cl)cc3)n2)cc1OC`, the AC50 is, setting by setting: under setting [1], 0.398 µM [falling, full curve, poor fit]; under setting [2], 2.82 µM [falling, partial curve, poor fit].
Take `Cc1ccc(SCCC(=O)N2CCCC2)cc1`: the concentration at half-maximal activity (AC50) under setting [1] is 35.5 µM [rising, single point].
Regarding `Cc1cccc(C)c1NC(=O)N1C2CCCC1CC(NC(=O)C(C)(C)C)C2` (configuration not stated), under setting [2], the half-maximal activity concentration (AC50) is 25.1 µM [rising, single point].
Take `CCN1CCc2nc(N)oc2CC1`: the AC50 is 0.141 µM [rising, full curve, poor fit] under setting [1] and 0.2 µM [rising, full curve, poor fit] under setting [2].
Take `COc1ccc(Cn2nnnc2C(c2ccccn2)N2CCN(c3cc(Cl)ccc3C)CC2)cc1` (configuration not stated): the AC50 was 14.1 µM [rising, partial curve, poor fit] under setting [1] and 22.4 µM [rising, partial curve] under setting [2].
Consider `CCn1c(SCC(=O)Nc2ccc3c(c2)OCCO3)nnc1-c1ccccn1`, for which the concentration at half-maximal activity (AC50) under setting [2] is 5.62 µM [falling, single point].
`O=C(Nc1ccc2c(c1)OCCO2)Nc1ccc2c(c1)OCO2`: the AC50 under setting [1] is 0.0891 µM [falling, full curve, poor fit].
With `CCSc1ccccc1C(=O)Nc1nc2ccccc2c(=O)[nH]1`, the concentration at half-maximal activity (AC50) was 35.5 µM [falling, partial curve, poor fit] under setting [1] and 35.5 µM [falling, partial curve, poor fit] under setting [2].
On to `CCOc1ccccc1N1CCN(C(=S)NC(=O)C23CC4CC(CC(C4)C2)C3)CC1`, for which the AC50 by setting is: under setting [1], 14.1 µM [rising, partial curve]; under setting [2], 12.6 µM [rising, partial curve].
As to `COc1cccc(C(=O)/C=C/c2ccc(SC)cc2)c1`, the half-maximal activity concentration (AC50) under setting [1] is 22.4 µM [falling, single point] and the concentration at half-maximal activity (AC50) under setting [2] is 31.6 µM [falling, single point].
